Experimental data published in PubChem BioAssay AID1347423 (Functional Genomics Laboratory (NCATS/FGL), 2020).
Among all 52,000 sequences or so, about 210 (0.4%) were called active.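 How the source made its calls: active means gene whose silencing raises cell survival under the drug, median off-target-corrected z-score across its silencing RNAs 2 or more; inactive means the rest.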 The list shows a part of the results.

test: Resistance to Poly (ADP-Ribose) Polymerase inhibitor: Gene Identification via Genome-wide siRNA Screen; details: mouse BRCA2 R2336H ES cells, olaparib, CellTiter-Glo viability; hits give high values
Outline: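 Genome-wide siRNA screen (3 siRNAs/gene, 20 nM) in mouse ES cells carrying hypomorphic BRCA2 R2336H; olaparib 500 nM added 48 h post-transfection, CellTiter-Glo viability 72 h later. Normalized to plate-median negative control; MAD z-scores, gene median, seed-adjusted.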

Sequence	z-score
GCAAGAACUGACUUUCCUATT against Snn	inactive: -0.772
GCACCAAAAUACACGAAAGTT against AW456874	inactive: -0.00934
GGAGAUGAAGAAGAUUCAATT against Pura	inactive: 1.85
GCUACCUUCAGACAAGCACTT against Prss32	inactive: 0.574
GGUCUCUGAACUGAUCCGUTT against Cyp7a1	inactive: -0.0222
GGAUUGAAAUGUGUAAAACTT against 1700010C24Rik	inactive: -0.596
GGUAAAUUGAGAGAAUAACTT against Tpd52	inactive: 0.626
GCAAGUCUGGAUGGAUGAGTT against 1190005I06Rik	inactive: 0.0823
GGAUGAGUUCCUUUUACUATT against Cntnap4	inactive: 0.0699
GGAUUUGUUGGAAAUUGGATT against C030032C09Rik	inactive: -0.469
GGACCAACAAGUUCAUCAATT against Arhgap10	inactive: -1.93
GGUAACAGAAUACCUGUCCTT against Hapln4	inactive: 0.144
GGAGAAUCUUCAACACUGGTT against Adprh	inactive: 0.333
CCAAAGUCUGUUAAUGGGUTT against 4921517D22Rik	inactive: 0.998
GGAGCGUAGAUAACUUAUCTT against Ssfa2	inactive: 0.264
GGCAAGGUCUUGGAUGUGATT against Mx1	inactive: 0.154
GGACCUCACUGAGACCUUATT against Anxa8	inactive: -2.55
GGUGAAAAGUCAAUUUUACTT against Neurog1	inactive: 2.03
CGACUUCCAGUUUGUGCAGTT against Dpp9	inactive: 0.0443
GGGCCAUCUGUACUAUGAUTT against Tgm4	inactive: -0.339
GCUUUAUGCCAGUUGUCAUTT against Slc35f1	inactive: 0.313
GGUGCUUUUAGUCUAGCUATT against Pcdhac1	inactive: 0.0985

Sequence	z-score
CGUGGAGGUAUGCACACGUTT against Ndrl	inactive: 1.34
GGCAGCUGAUUUUUGAUGATT against A430081C19Rik	inactive: 0.647
CCAUUUGAGGUAUUGGUAUTT against Acadsb	inactive: -1.38
GGAAAGAAAAAUGAAGCUUTT against 2010200O16Rik	inactive: 0.909
AACUUAUGGUUGGUUGUCGTT against Marveld3	inactive: -0.299
CGCACCUCCAGAUCAAAAGTT against Ucn3	inactive: -0.0913
CCCAGUGAAUCUAAGAAAATT against Zfp260	inactive: 0.0587
GGAUGUGGAGUCACUGAUGTT against 1810060J02Rik	inactive: -0.0172
GCACCAAAUUUUGUGCUUUTT against Olfr395	inactive: 0.844
GCAGUAAAUGCGAGCAGGATT against Hoxb8	inactive: -1.29
GGCUGAGAACAAUAUGUAUTT against 2610001E17Rik	inactive: 0.117
GCGACAAAGCUCGUUAUGATT against Hmgb2	inactive: 1
CGAAUCCUUAGUUGAAGAATT against 5330408N05Rik	inactive: -1.29
GGAAGUGGAACAGGACGUATT against Caps2	inactive: -1.12
GGGCAAUCAAGAUAACAAATT against Stk35	inactive: 0.0479
CCCUGGUUAUCACAGACAATT against Rpl38	inactive: -2.41
GCUGGGAAAGCAGAAUCUATT against 0610009B22Rik	inactive: -0.761
CCAAUACCUGCAAGACCUGTT against LOC234374	inactive: -1.89
GGAAAAGGAUGAUUAUGAATT against Son	inactive: -2.49
CCCAUGAUAAUGAAUUAGCTT against Olfr378	inactive: 0.948
GCUCAGCAAUACUUCCUACTT against Itgal	inactive: 1.25
GGAAGUGGAAAAAGUUUAGTT against Brip1	inactive: 1.47

Sequence	z-score
UAGUCAUCUUCACUCUCCUTT against Olfr1249	inactive: -0.733
GGGCCUAUGCUUACAAACGTT against Pkp3	inactive: 0.505
CGGACACAUUGACUGAAUATT against Lphn1	inactive: 0.438
GGCUGUGCAGUCUACAAUCTT against 1110014D18Rik	inactive: 0.36
CGGACAUUGUUCUGUUUUCTT against Por	inactive: 1.14
CCUAGAGACCCAUUCUCUATT against 2210409E12Rik	inactive: 0.0739
GGCCAAACAGUUAUCUGAATT against AI182371	inactive: -0.487
CCACGAGUGAAUUAUAAUCTT against 6820416H06Rik	inactive: -0.242
CGGUAAUCUUAUGACAACUTT against Gpc6	inactive: 0.181
CCUGGUAUAGAGUGAAAUCTT against 4930522H14Rik	inactive: -0.283
GGUUGGAAAUGAAAUCAAUTT against D14Ertd171e	inactive: -0.596
GGCUUAUUGGAAGAGGACGTT against Ier5	inactive: -0.191
GGAUAAGAUCCGACUAUUCTT against Evc2	inactive: 0.108
GGAACACACUAAAAUUCGATT against Cyp17a1	inactive: 0.12
GCCUCAUCGUUGCUGACUATT against Pde3b	inactive: 2.31
GGUAACUGUGGACUUAUCUTT against Olfr665	inactive: -0.67
GCUUUUAAGAUCUCCCUCCTT against Gtf2h3	inactive: 1.14
GGUCGAACAUUUAAACUCUTT against Ifit3	inactive: -1.59
GGCUGAGAACAUCAAAAAATT against Folh1	inactive: -0.274
GCUGUGCUUACAUGUUUACTT against Rpn2	inactive: -0.102
CGGAUUCUUUUCUAAAGUGTT against Lox	inactive: 1.13
CCUAAAAGGGUUUUGCUUCTT against H2afy3	inactive: 0.76

Taken from above.
Value for GCUGUGCUUACAUGUUUACTT against Rpn2 under z-score: inactive: -0.102
Value for GGACCUCACUGAGACCUUATT against Anxa8 under z-score: inactive: -2.55
Value for GGUCGAACAUUUAAACUCUTT against Ifit3 under z-score: inactive: -1.59
